# According to PubChem BioAssay AID330 (DTP/NCI, 2004):
# The list does not hold the whole screen: it is rich in T/C values a quarter to a half above the control, in often repeated tests (any T/C) and in doses without a T/C. Further doses and runs are listed elsewhere. T/C: endpoint of the treated group in % of that of the vehicle group. Some entries give survivors of the animals treated and no T/C: the source files T/C as zero there, which appears to mark a toxic dose or a test without result, not a measured value. Some doses without a T/C left all or most animals alive at the check, yet need not have been tolerated: the source hardly ever lists a survival T/C far under the control, and the zero likely stands for such cases as well. Survivors were counted at the toxicity check, usually on the fifth day, unless a day is given; later deaths do not show. Schedule codes are those of the source, read here as Q, the interval in days (D) or hours (H), X, the number of doses. Some doses were run more than once; their values stand side by side, smallest first. For survival time, the PubChem record calls one and a half times the control and up active, and a quarter to a half above the control has no call in these data; cut-offs in other NCI protocols can differ. Some T/C values are followed by the survivors on the day toxicity was checked, most often the fifth; without a count, all were alive then.
# Tested on: P388 leukemia ip, CD2F1 mice, survival T/C
# Assay: NCI In Vivo Anticancer Drug Screen. Data for tumor model P388 Leukemia (intraperitoneal) in CD2F1 (CDF1) mice
# Settings: T/C endpoint: median survival time, higher T/C = longer survival
# [1] = dose: 200.0 mg/kg/injection, schedule: Q01DX005 (ip), vehicle: Klucel (hydroxypropylcellulose) (HPC)
# [2] = dose: 25.0 mg/kg/injection, schedule: Q01DX009 (ip), vehicle: saline with Tween-80
# [3] = dose: 6.25 mg/kg/injection, schedule: Q01DX009 (ip), vehicle: saline
# [4] = dose: 12.5 mg/kg/injection, schedule: Q01DX009 (ip), vehicle: saline
# [5] = dose: 50.0 mg/kg/injection, schedule: Q01DX009 (ip), vehicle: saline
# [6] = dose: 100.0 mg/kg/injection, schedule: Q01DX009 (ip), vehicle: saline
# [7] = dose: 200.0 mg/kg/injection, schedule: Q01DX009 (ip), vehicle: saline
# [8] = dose: 1.56 mg/kg/injection, schedule: Q01DX009 (ip), vehicle: saline
smiles,measurement,setting,value
O=C(Cc1nc2ccccc2[nH]1)NNC(=S)NC1CCCCC1,survivor count,[1],6 of 6
C=C1C(=O)OC2CC3=CCC(OC3=O)/C(C)=C\CC12 (centres undefined),survivor count,"dose: 172.0 mg/kg/injection, schedule: Q01DX005 (ip), vehicle: Klucel (hydroxypropylcellulose) (HPC)",1 of 6
COc1cc(N=Nc2ccc([N+](=O)[O-])cc2)ccc1N(CCCl)CCCl,T/C,[2],140 % of control
same,T/C,"dose: 50.0 mg/kg/injection, schedule: Q01DX009 (ip), vehicle: saline with Tween-80",145 % of control
CCC1C2C(C(C)c3c[nH]c4ccccc34)NC(=O)C23C(=O)/C=C\C(=O)C(O)/C(C)=C/C(C)C/C=C/C3C2OC12C (centres undefined),survivor count,"dose: 3.0 mg/kg/injection, schedule: Q01DX005 (ip), vehicle: Klucel (hydroxypropylcellulose) (HPC)",0 of 6 and 3 of 6
same,survivor count,"dose: 6.0 mg/kg/injection, schedule: Q01DX005 (ip), vehicle: Klucel (hydroxypropylcellulose) (HPC)",0 of 6
same,survivor count,"dose: 12.5 mg/kg/injection, schedule: Q01DX005 (ip), vehicle: Klucel (hydroxypropylcellulose) (HPC)",0 of 5
same,survivor count,"dose: 25.0 mg/kg/injection, schedule: Q01DX005 (ip), vehicle: Klucel (hydroxypropylcellulose) (HPC)",0 of 5
same,survivor count,"dose: 50.0 mg/kg/injection, schedule: Q01DX005 (ip), vehicle: Klucel (hydroxypropylcellulose) (HPC)",0 of 5
CN(C)Cc1cccc[c]1[Sn]([CH3])([Br])[c]1ccccc1CN(C)C,T/C,[3],"97 [5 of 6 alive], 100, 120 % of control"
same,survivor count,[3],4 of 6
same,T/C,[4],"93, 100, 110, 130 % of control"
same,T/C,"dose: 25.0 mg/kg/injection, schedule: Q01DX009 (ip), vehicle: saline","95, 101, 114 [4 of 6 alive], 130 % of control"
same,survivor count,[5],1 of 6
same,survivor count,[6],0 of 6
same,survivor count,[7],0 of 6
COC(=O)C(Cc1cnc2nc(N)nc(N)c2n1)C(=O)OC,survivor count,"dose: 200.0 mg/kg/injection, schedule: Q01DX009 (ip), vehicle: distilled water + Tween-80",0 of 5
CCCCCCCCCCCCCC[N+]1(CC)CCCCC1,T/C,"dose: 0.78 mg/kg/injection, schedule: Q01DX009 (ip), vehicle: saline",125 % of control [5 of 6 alive]
same,T/C,[8],136 % of control
same,survivor count,[8],3 of 6
same,survivor count,"dose: 3.12 mg/kg/injection, schedule: Q01DX009 (ip), vehicle: saline",5 of 6
same,survivor count,"dose: 3.12 mg/kg/injection, schedule: Q04DX003 (ip), vehicle: saline",1 of 6
same,survivor count,[3],4 of 6
same,survivor count,"dose: 6.25 mg/kg/injection, schedule: Q04DX003 (ip), vehicle: saline",2 of 6
same,survivor count,[4],1 of 6
same,survivor count,"dose: 12.5 mg/kg/injection, schedule: Q04DX003 (ip), vehicle: saline",0 of 6
same,survivor count,[5],0 of 6
same,survivor count,[6],0 of 6
same,survivor count,[7],0 of 6
CCCCN(CCCC)CCCCCCCC(O)c1cc2ccccc2c2ccccc12 (centres undefined),survivor count,"dose: 200.0 mg/kg/injection, schedule: Q01DX005 (ip), vehicle: saline + Tween-80 + alcohol",4 of 5
O=C(CCCl)N/N=C/c1ccccc1,T/C,"dose: 19.5 mg/kg/injection, schedule: Q01DX009 (ip), vehicle: saline + alcohol",144 % of control
same,survivor count,"dose: 20.0 mg/kg/injection, schedule: Q01DX009 (ip), vehicle: saline",3 of 6
same,survivor count,"dose: 39.0 mg/kg/injection, schedule: Q01DX009 (ip), vehicle: saline + alcohol",4 of 6
same,survivor count,"dose: 40.0 mg/kg/injection, schedule: Q01DX009 (ip), vehicle: saline",0 of 6
same,survivor count,"dose: 78.0 mg/kg/injection, schedule: Q01DX009 (ip), vehicle: saline + alcohol",0 of 6
CN=C(N)NCCCCCCCCNC(N)=NC,T/C,[4],135 % of control
same,survivor count,[2],6 of 6
COC(=O)/C=C1\C[C@H]2C[C@]3(O)O[C@H](C[C@@H](O)CC(=O)O[C@@H]([C@@H](C)O)C[C@@H]4C/C(=C\C(=O)OC)[C@H](OC(C)=O)[C@@](O)(O4)C(C)(C)/C=C/[C@@H](C1)O2)C[C@H](OC(=O)CC(C)C)C3(C)C,T/C,"dose: 10.0 micrograms/kg/injection, schedule: Q01DX009 (ip), vehicle: saline + alcohol",134 % of control
O=C1c2[nH]cnc2N(Cc2ccc(Cl)cc2)C2=NCCN12,survivor count,[1],2 of 5
